{"source": "PubChem BioAssay AID602196 (INSERM, 2012)", "purpose": "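Genes whose knock-down alters cisplatin killing of lung cancer cells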", "cell system": "human A549 lung cancer cells", "reagent": "siRNA pair against human genes", "duration": "48 h transfection before cisplatin; time from cisplatin to read-out not stated", "treatment": "cisplatin at a dose killing half of control-siRNA cells; exact dose and duration not given", "read-out": "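Shift in cisplatin death relative to control siRNA, from -50 (all cells die) to +50 (no cells die); siRNAs harmful on their own scored 0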", "scale": "two-siRNA summed score (-2 to +2): higher = both siRNAs protect from cisplatin killing; -2 means both sensitise; mean protection from cisplatin (shift in death): higher = protection from cisplatin killing", "hit rule": "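Each siRNA scores 0 if harmful alone by LDH or WST-1, otherwise +1 if it reduces and -1 if it increases cisplatin killing; a gene is active when both siRNAs agree (sum +2 or -2)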", "calls": "active = both siRNAs shift cisplatin killing the same way; inactive = no consistent shift, or siRNA harmful alone", "note": "Shown is an unselected part of about 23,000 deposited reagents. In the full data, 455 (2%) got an active call. 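Active includes both protection and sensitisation; some change values fall well beyond the stated -50 to +50 range.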 Further read-outs or replicates are left out here. The record does not give: the amount of reagent."}
{"Target gene": "BDKRB1", "two-siRNA summed score (-2 to +2)": 0, "mean protection from cisplatin (shift in death) (%)": -4.8, "Outcome": "inactive"}
{"Target gene": "PPP1CC", "two-siRNA summed score (-2 to +2)": -1, "mean protection from cisplatin (shift in death) (%)": -10.1, "Outcome": "inactive"}
{"Target gene": "LOC441561", "two-siRNA summed score (-2 to +2)": 0, "mean protection from cisplatin (shift in death) (%)": 10, "Outcome": "inactive"}
{"Target gene": "CBL", "two-siRNA summed score (-2 to +2)": 0, "mean protection from cisplatin (shift in death) (%)": 18.4, "Outcome": "inactive"}
{"Target gene": "NXT1", "two-siRNA summed score (-2 to +2)": 0, "mean protection from cisplatin (shift in death) (%)": -0.6, "Outcome": "inactive"}
{"Target gene": "IFT20", "two-siRNA summed score (-2 to +2)": 0, "mean protection from cisplatin (shift in death) (%)": 17.1, "Outcome": "inactive"}
{"Target gene": "KCNH5", "two-siRNA summed score (-2 to +2)": 0, "mean protection from cisplatin (shift in death) (%)": 4.7, "Outcome": "inactive"}
{"Target gene": "OR6C1", "two-siRNA summed score (-2 to +2)": 0, "mean protection from cisplatin (shift in death) (%)": 13.1, "Outcome": "inactive"}
{"Target gene": "ALDH3B2", "two-siRNA summed score (-2 to +2)": -1, "mean protection from cisplatin (shift in death) (%)": -11.3, "Outcome": "inactive"}
{"Target gene": "CCAR2", "two-siRNA summed score (-2 to +2)": 0, "mean protection from cisplatin (shift in death) (%)": 3.8, "Outcome": "inactive"}
{"Target gene": "CALR3", "two-siRNA summed score (-2 to +2)": -1, "mean protection from cisplatin (shift in death) (%)": -3.8, "Outcome": "inactive"}
{"Target gene": "HYAL4", "two-siRNA summed score (-2 to +2)": 0, "mean protection from cisplatin (shift in death) (%)": 8.2, "Outcome": "inactive"}
{"Target gene": "IGF2BP1", "two-siRNA summed score (-2 to +2)": 1, "mean protection from cisplatin (shift in death) (%)": 10, "Outcome": "inactive"}
{"Target gene": "LOC440968", "two-siRNA summed score (-2 to +2)": 0, "mean protection from cisplatin (shift in death) (%)": 18.8, "Outcome": "inactive"}
{"Target gene": "RNF168", "two-siRNA summed score (-2 to +2)": 0, "mean protection from cisplatin (shift in death) (%)": -4.4, "Outcome": "inactive"}
{"Target gene": "LOC388509", "two-siRNA summed score (-2 to +2)": 0, "mean protection from cisplatin (shift in death) (%)": 1.1, "Outcome": "inactive"}
{"Target gene": "IP6K1", "two-siRNA summed score (-2 to +2)": -1, "mean protection from cisplatin (shift in death) (%)": -5, "Outcome": "inactive"}
{"Target gene": "ARHGAP24", "two-siRNA summed score (-2 to +2)": -1, "mean protection from cisplatin (shift in death) (%)": -6.1, "Outcome": "inactive"}
{"Target gene": "FLJ44037", "two-siRNA summed score (-2 to +2)": 0, "mean protection from cisplatin (shift in death) (%)": 10.6, "Outcome": "inactive"}
{"Target gene": "EBF2", "two-siRNA summed score (-2 to +2)": 0, "mean protection from cisplatin (shift in death) (%)": 5.8, "Outcome": "inactive"}
{"Target gene": "LCA5L", "two-siRNA summed score (-2 to +2)": 1, "mean protection from cisplatin (shift in death) (%)": 4.5, "Outcome": "inactive"}
{"Target gene": "CCDC88A", "two-siRNA summed score (-2 to +2)": 0, "mean protection from cisplatin (shift in death) (%)": 1.7, "Outcome": "inactive"}
{"Target gene": "SLAMF6", "two-siRNA summed score (-2 to +2)": 1, "mean protection from cisplatin (shift in death) (%)": 12.2, "Outcome": "inactive"}
{"Target gene": "BCOR", "two-siRNA summed score (-2 to +2)": 1, "mean protection from cisplatin (shift in death) (%)": 1.2, "Outcome": "inactive"}
{"Target gene": "REM2", "two-siRNA summed score (-2 to +2)": 0, "mean protection from cisplatin (shift in death) (%)": 26.9, "Outcome": "inactive"}
{"Target gene": "PGA5", "two-siRNA summed score (-2 to +2)": 0, "mean protection from cisplatin (shift in death) (%)": -1.7, "Outcome": "inactive"}
{"Target gene": "PTS", "two-siRNA summed score (-2 to +2)": 0, "mean protection from cisplatin (shift in death) (%)": 5.2, "Outcome": "inactive"}
{"Target gene": "PON3", "two-siRNA summed score (-2 to +2)": 0, "mean protection from cisplatin (shift in death) (%)": 1.9, "Outcome": "inactive"}
{"Target gene": "CABLES1", "two-siRNA summed score (-2 to +2)": 1, "mean protection from cisplatin (shift in death) (%)": 9.5, "Outcome": "inactive"}
{"Target gene": "SCN10A", "two-siRNA summed score (-2 to +2)": 0, "mean protection from cisplatin (shift in death) (%)": -16.3, "Outcome": "inactive"}
{"Target gene": "ASIC2", "two-siRNA summed score (-2 to +2)": 0, "mean protection from cisplatin (shift in death) (%)": 3.8, "Outcome": "inactive"}
{"Target gene": "TENM3-AS1", "two-siRNA summed score (-2 to +2)": 0, "mean protection from cisplatin (shift in death) (%)": 0.1, "Outcome": "inactive"}
{"Target gene": "CSRP1", "two-siRNA summed score (-2 to +2)": 0, "mean protection from cisplatin (shift in death) (%)": 3.4, "Outcome": "inactive"}
{"Target gene": "CHPF2", "two-siRNA summed score (-2 to +2)": -1, "mean protection from cisplatin (shift in death) (%)": -5, "Outcome": "inactive"}
{"Target gene": "TYMP", "two-siRNA summed score (-2 to +2)": -1, "mean protection from cisplatin (shift in death) (%)": -11.2, "Outcome": "inactive"}
{"Target gene": "DKFZP434B172", "two-siRNA summed score (-2 to +2)": 0, "mean protection from cisplatin (shift in death) (%)": 17.6, "Outcome": "inactive"}
{"Target gene": "CHAC2", "two-siRNA summed score (-2 to +2)": 1, "mean protection from cisplatin (shift in death) (%)": 15.7, "Outcome": "inactive"}
{"Target gene": "KICS2", "two-siRNA summed score (-2 to +2)": 0, "mean protection from cisplatin (shift in death) (%)": 2.7, "Outcome": "inactive"}
{"Target gene": "TRO", "two-siRNA summed score (-2 to +2)": 0, "mean protection from cisplatin (shift in death) (%)": 7.8, "Outcome": "inactive"}
{"Target gene": "ZSCAN18", "two-siRNA summed score (-2 to +2)": 0, "mean protection from cisplatin (shift in death) (%)": 1.7, "Outcome": "inactive"}

6 entries from above, arranged by “two-siRNA summed score (-2 to +2)”, ascending.
{"Target gene": "CHPF2", "two-siRNA summed score (-2 to +2)": -1, "mean protection from cisplatin (shift in death) (%)": -5, "Outcome": "inactive"}
{"Target gene": "TYMP", "two-siRNA summed score (-2 to +2)": -1, "mean protection from cisplatin (shift in death) (%)": -11.2, "Outcome": "inactive"}
{"Target gene": "TENM3-AS1", "two-siRNA summed score (-2 to +2)": 0, "mean protection from cisplatin (shift in death) (%)": 0.1, "Outcome": "inactive"}
{"Target gene": "CSRP1", "two-siRNA summed score (-2 to +2)": 0, "mean protection from cisplatin (shift in death) (%)": 3.4, "Outcome": "inactive"}
{"Target gene": "DKFZP434B172", "two-siRNA summed score (-2 to +2)": 0, "mean protection from cisplatin (shift in death) (%)": 17.6, "Outcome": "inactive"}
{"Target gene": "CHAC2", "two-siRNA summed score (-2 to +2)": 1, "mean protection from cisplatin (shift in death) (%)": 15.7, "Outcome": "inactive"}
